The values below come from the supplement of paper PMC12009310.

Structures can show the parent of a compound that is named as a salt. ± gives the standard deviation of the averaged measurements. Some of the results follow. Plates or batches differ in their baseline, so values are only roughly comparable.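 The cells are a mouse kidney inner medullary collecting duct line, silenced either for the ciliary gene Rpgrip1l or with a non-targeting control siRNA.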

This assay has as its system mIMCD3. Briefly: robust z score of cilia incidence (% cells with single cilium) vs plate controls; higher = more ciliated cells. As to conditions: 10 µM; 48 h; siRNA: siScr.
With `N#C/C(=C\c1ccc(O)c(O)c1)C(=O)NCCCc1ccccc1`, the “robust z score of cilia incidence” value is -12 ± 18. Consider `Nc1c(S(=O)(=O)O)cc(Nc2cccc3ccccc23)c2c1C(=O)c1ccccc1C2=O`, for which the “robust z score of cilia incidence” value is -40.6 ± 8.4. For `CC(=O)OCCNC(=O)c1cccnc1` [N-[2-(Acetoxy)ethyl]-3-pyridinecarboxamide], the “robust z score of cilia incidence” value stood at 0.217 ± 0.14. As to `Cc1ccccc1N=Nc1ccc(NC(=O)c2ccnn2C)c(C)c1`, the “robust z score of cilia incidence” value was -9.13 ± 8.2. On to `NCCc1c[nH]cn1` [Histamine dihydrochloride], for which the “robust z score of cilia incidence” value was -20.2 ± 3.4. `CCOc1ccccc1OC(c1ccccc1)C1CNCCO1` (stereo unspecified) [Reboxetine mesylate]: the “robust z score of cilia incidence” value was -1.8 ± 1.1. For `CCC(=O)OCN1C(=O)C=CC1=O` the value was 1.09 ± 0.57; for `C[C@H](NC[C@H](O)CP(=O)(O)CC1CCCCC1)c1ccc(Cl)c(Cl)c1`, 0.0645 ± 0.67. On to `O=C(O)CN1C(=O)c2cccc3cccc(c23)C1=O` [Alrestatin], for which the “robust z score of cilia incidence” value is -0.363 ± 5.9. The result for `CC1CCN(CCCC(=O)c2ccc(F)cc2)CC1` [Melperone hydrochloride] reads -6.41 ± 0.46; that for `CC(C)NCC(O)COc1ccc(CCOCC2CC2)cc1` (stereo unspecified) [Betaxolol hydrochloride], -7.66 ± 5.2; that for `Nc1nc2c(ncn2COCCO)c(=O)[nH]1` [Acyclovir], -11.7 ± 7.2. As to `Cc1noc(NS(=O)(=O)c2cccc3c(N(C)C)cccc23)c1C`, the “robust z score of cilia incidence” value is -0.918 ± 3.3. In the case of `CCN(CC)CC1CCCCN1CC(=O)N1c2ccccc2C(=O)Nc2cccnc21` (stereo unspecified), the “robust z score of cilia incidence” value worked out at 1.33 ± 1.1.

Regarding `N[C@@H](C(=O)O)c1ccc(O)c(C(=O)O)c1` [(R)-3-Carboxy-4-hydroxyphenylglycine], the “robust z score of cilia incidence” value was found to be 1.01 ± 0.2. Consider `c1cc2c3c(c1)c1c(n3CCNC2)CCCC1` [WAY 629 hydrochloride], for which the “robust z score of cilia incidence” value was -2.62 ± 1.7.
